Measured values as given in the supplement of paper PMC6411743.
± gives the standard deviation of the averaged measurements. Some of the results follow.

The chains behind the UniProt entries cited, without tags or fusion partners. Where a name states a change or a piece, a line headed by the entry shows the natural chain unless it says otherwise.
UniProt O75600: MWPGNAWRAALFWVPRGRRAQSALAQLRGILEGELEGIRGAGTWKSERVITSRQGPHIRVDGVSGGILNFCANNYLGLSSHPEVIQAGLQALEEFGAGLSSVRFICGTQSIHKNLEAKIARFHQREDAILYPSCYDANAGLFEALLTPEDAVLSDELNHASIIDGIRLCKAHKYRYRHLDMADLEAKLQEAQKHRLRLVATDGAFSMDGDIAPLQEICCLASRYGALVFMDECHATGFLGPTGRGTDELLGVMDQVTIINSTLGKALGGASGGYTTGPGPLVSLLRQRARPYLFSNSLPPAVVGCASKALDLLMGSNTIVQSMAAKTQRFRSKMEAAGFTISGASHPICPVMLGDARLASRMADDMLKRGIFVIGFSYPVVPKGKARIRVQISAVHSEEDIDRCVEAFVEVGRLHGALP
UniProt P00441, whole entry: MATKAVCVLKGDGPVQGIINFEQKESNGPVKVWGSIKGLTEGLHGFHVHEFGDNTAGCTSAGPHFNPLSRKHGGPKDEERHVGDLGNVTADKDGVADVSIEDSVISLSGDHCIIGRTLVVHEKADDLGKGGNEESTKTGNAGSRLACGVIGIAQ
UniProt P04843: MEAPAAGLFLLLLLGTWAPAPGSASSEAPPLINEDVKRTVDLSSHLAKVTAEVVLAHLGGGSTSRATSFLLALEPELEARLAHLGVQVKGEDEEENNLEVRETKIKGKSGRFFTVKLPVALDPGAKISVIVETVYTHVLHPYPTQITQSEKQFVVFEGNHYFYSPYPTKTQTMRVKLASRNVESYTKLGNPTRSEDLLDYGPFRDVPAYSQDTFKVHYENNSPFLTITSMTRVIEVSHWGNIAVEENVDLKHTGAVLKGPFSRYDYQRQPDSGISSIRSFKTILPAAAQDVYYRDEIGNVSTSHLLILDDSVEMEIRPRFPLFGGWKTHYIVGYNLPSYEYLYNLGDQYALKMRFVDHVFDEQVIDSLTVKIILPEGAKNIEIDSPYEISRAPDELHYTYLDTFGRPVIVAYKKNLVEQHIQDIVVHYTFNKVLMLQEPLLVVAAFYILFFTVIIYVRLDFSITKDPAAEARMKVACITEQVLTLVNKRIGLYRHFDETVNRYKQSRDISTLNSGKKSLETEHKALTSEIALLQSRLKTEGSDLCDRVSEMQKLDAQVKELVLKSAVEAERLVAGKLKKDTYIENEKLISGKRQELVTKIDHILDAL
UniProt O94906: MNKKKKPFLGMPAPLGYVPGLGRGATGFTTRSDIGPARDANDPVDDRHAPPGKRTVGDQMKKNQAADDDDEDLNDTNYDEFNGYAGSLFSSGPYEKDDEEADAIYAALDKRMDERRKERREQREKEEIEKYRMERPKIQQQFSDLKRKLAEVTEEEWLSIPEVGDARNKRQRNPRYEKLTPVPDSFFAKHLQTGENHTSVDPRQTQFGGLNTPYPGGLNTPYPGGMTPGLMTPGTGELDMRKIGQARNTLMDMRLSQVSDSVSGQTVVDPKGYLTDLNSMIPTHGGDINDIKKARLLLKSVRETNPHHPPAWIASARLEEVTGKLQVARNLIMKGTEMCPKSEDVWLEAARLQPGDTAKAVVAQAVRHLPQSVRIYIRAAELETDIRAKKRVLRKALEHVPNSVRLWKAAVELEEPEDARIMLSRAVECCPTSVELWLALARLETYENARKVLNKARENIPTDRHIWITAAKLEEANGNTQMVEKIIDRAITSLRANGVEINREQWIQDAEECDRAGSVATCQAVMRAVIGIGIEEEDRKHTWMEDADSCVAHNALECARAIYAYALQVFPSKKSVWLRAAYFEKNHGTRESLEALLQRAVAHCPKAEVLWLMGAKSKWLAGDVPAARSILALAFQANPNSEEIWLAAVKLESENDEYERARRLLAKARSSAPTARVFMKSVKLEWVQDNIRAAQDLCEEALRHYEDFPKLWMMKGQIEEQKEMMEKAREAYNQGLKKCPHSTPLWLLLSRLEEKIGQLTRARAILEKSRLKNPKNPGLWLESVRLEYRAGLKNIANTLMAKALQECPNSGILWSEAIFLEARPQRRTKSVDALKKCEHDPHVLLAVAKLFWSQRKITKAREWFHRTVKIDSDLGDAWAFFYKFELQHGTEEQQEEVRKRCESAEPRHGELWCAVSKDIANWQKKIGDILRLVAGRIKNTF
UniProt O75113: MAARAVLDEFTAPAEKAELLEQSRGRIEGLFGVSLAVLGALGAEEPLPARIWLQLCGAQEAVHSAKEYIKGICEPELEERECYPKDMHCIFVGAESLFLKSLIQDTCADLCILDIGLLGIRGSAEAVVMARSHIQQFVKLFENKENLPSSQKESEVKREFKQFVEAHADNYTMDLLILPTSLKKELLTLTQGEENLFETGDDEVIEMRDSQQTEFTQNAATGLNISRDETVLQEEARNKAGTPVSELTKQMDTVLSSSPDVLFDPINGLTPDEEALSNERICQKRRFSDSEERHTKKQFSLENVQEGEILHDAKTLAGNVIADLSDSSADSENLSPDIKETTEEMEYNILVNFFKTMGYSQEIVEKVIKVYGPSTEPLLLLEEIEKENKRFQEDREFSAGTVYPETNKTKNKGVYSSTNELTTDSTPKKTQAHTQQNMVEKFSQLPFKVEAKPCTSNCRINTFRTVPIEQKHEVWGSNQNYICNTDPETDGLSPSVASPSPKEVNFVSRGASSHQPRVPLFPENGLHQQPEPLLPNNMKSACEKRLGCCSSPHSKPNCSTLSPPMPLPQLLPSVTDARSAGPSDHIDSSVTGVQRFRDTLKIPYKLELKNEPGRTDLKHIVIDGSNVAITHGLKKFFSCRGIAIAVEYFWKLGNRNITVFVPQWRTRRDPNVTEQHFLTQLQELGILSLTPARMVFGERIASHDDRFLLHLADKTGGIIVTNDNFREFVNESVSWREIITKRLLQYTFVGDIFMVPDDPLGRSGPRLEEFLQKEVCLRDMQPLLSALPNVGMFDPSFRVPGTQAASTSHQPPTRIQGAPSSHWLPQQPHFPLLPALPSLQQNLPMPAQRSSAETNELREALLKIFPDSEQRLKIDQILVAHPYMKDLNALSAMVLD
UniProt P06753, whole entry: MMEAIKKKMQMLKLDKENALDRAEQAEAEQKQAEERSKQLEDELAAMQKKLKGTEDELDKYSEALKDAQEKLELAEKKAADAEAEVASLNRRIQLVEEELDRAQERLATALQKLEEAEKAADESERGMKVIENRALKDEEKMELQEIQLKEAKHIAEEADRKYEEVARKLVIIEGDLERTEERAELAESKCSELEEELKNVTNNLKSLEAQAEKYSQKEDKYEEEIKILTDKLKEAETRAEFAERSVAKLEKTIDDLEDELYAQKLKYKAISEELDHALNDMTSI
UniProt P04899, whole entry: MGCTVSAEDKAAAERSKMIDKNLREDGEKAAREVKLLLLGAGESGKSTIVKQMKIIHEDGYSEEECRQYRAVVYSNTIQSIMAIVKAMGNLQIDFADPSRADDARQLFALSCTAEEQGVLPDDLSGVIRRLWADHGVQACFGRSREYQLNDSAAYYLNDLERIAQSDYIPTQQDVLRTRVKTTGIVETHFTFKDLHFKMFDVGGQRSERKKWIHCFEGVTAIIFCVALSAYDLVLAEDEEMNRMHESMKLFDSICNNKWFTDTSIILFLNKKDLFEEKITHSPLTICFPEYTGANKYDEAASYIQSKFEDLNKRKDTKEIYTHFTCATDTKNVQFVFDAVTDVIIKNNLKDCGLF
UniProt P06730, whole entry: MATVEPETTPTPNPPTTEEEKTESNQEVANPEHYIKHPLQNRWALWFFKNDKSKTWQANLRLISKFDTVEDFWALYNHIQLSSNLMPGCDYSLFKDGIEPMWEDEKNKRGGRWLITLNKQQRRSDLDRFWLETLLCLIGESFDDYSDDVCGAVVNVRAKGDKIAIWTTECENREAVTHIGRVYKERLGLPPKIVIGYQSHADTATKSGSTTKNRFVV
UniProt O95999: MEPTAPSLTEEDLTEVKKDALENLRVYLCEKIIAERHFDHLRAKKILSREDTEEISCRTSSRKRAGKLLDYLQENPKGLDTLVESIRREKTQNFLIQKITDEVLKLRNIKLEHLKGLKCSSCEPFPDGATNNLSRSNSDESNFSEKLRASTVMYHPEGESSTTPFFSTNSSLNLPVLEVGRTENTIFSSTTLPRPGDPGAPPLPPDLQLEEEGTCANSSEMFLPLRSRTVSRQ
UniProt O95881: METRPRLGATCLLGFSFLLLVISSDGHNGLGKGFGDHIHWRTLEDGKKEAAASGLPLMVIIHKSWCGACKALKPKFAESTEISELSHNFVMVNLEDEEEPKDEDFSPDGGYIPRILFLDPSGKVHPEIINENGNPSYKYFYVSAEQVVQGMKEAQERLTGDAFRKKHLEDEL
UniProt P06126: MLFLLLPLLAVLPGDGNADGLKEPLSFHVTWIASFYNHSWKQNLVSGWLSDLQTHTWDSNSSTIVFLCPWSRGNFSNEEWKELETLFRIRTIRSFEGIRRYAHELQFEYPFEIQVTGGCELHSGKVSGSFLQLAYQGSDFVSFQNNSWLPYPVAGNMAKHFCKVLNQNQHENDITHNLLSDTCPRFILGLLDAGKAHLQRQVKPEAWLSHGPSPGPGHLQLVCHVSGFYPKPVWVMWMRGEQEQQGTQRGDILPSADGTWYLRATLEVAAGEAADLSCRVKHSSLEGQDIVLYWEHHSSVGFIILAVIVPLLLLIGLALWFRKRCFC
UniProt P04150: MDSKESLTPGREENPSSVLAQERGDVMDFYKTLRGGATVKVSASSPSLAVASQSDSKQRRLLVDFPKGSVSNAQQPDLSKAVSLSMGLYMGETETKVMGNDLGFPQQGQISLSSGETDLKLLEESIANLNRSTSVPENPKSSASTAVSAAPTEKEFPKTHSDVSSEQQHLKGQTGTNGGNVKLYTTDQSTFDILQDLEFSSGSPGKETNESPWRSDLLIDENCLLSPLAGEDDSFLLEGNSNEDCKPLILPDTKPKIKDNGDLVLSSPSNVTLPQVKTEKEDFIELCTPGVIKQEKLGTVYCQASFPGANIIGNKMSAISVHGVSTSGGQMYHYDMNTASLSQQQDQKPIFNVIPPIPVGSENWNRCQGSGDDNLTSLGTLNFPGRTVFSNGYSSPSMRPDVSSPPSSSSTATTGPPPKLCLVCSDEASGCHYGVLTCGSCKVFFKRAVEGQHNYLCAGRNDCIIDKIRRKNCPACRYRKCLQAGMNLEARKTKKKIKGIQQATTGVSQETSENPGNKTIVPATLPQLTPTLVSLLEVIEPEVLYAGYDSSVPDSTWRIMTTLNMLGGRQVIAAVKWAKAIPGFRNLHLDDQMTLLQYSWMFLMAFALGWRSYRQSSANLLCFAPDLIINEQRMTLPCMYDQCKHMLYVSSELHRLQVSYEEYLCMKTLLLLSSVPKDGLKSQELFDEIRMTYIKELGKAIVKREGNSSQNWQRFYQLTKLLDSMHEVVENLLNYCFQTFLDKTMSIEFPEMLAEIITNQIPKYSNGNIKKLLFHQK
UniProt P48735: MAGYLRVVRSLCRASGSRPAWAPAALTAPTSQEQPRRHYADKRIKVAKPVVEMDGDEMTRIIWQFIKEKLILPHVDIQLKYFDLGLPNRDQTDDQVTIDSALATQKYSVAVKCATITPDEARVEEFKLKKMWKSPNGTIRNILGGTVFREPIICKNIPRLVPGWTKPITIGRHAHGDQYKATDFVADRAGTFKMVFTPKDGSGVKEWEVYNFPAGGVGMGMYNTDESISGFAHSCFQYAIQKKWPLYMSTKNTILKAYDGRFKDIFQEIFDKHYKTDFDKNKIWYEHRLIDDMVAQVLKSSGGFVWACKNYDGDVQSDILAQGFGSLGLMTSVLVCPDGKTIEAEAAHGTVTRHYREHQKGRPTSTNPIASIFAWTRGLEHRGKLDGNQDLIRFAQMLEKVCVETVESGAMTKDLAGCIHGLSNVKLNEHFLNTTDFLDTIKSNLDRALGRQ

Compound: Nc1nc2c(ncn2[C@@H]2O[C@H](COP(=O)(O)OP(=O)(O)OP(=O)(O)O)[C@@H](O)[C@H]2O)c(=O)[nH]1 [guanosine triphosphate]
Experiment: NP40-soluble protein abundance relative to vehicle (solubility fold change) (ratio); higher = more soluble protein in presence of GTP
Summary of the method: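 Jurkat crude lysate prepared with a Dounce homogeniser was treated at eight concentrations spanning 0.1 to 10 mM, 10 min at room temperature then 3 min at 37 °C. Solubilisation with 0.8% NP40 and benzonase and ultracentrifugation preceded TMT labelling of the supernatant for LC-MS/MS. Fold change against the detergent-processed vehicle was determined per replicate from vsn-normalised intensities, across three independent experiments.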

Target	NP40-soluble protein abundance (concentration: 0.1mM)	NP40-soluble protein abundance (concentration: 0.5mM)	NP40-soluble protein abundance (concentration: 1mM)	NP40-soluble protein abundance (concentration: 2mM)	NP40-soluble protein abundance (concentration: 4mM)	NP40-soluble protein abundance (concentration: 6mM)	NP40-soluble protein abundance (concentration: 8mM)	NP40-soluble protein abundance (concentration: 10mM)
UniProt O75600 and related entries	1.03 ± 0.036	1.02 ± 0.024	0.996 ± 0.071	0.975 ± 0.07	0.978 ± 0.041	0.948 ± 0.016	0.95 ± 0.018	0.915 ± 0.021
SOD1 (UniProt P00441)	0.907 ± 0.076	0.901 ± 0.084	0.922 ± 0.12	0.846 ± 0.13	0.841 ± 0.13	0.848 ± 0.14	0.855 ± 0.09	0.86 ± 0.1
ROCK2 (UniProt O75116)	0.975 ± 0.042	0.984 ± 0.065	0.969 ± 0.052	0.96 ± 0.095	0.956 ± 0.077	0.947 ± 0.071	0.977 ± 0.06	0.979 ± 0.078
RPN1 (UniProt P04843)	0.931 ± 0.027	0.984 ± 0.034	0.931 ± 0.032	0.924 ± 0.016	0.899 ± 0.018	0.929 ± 0.023	0.897 ± 0.032	0.894 ± 0.033
UniProt O94906 and related entries	1.06 ± 0.055	1.17 ± 0.086	1.26 ± 0.17	1.42 ± 0.27	1.66 ± 0.44	1.91 ± 0.46	2.23 ± 0.58	2.34 ± 0.6
N4BP1 (UniProt O75113)	1.01 ± 0.034	1.01 ± 0.032	1.01 ± 0.073	0.982 ± 0.13	0.959 ± 0.11	1.02 ± 0.18	0.998 ± 0.091	0.953 ± 0.065
UniProt P06753-2|P06753-6|P06753-5	0.859 ± 0.19	0.696 ± 0.082	1.46 ± 0.37	1.22 ± 0.22	1.21 ± 0.26	1.16 ± 0.14	0.989 ± 0.24	1.36 ± 0.31
UniProt P04899 and related entries	1.04 ± 0.033	1.03 ± 0.012	0.987 ± 0.011	0.9841 ± 0.007	0.988 ± 0.035	0.963 ± 0.023	0.934 ± 0.018	0.908 ± 0.069
UniProt P06730 and related entries	0.967 ± 0.02	0.991 ± 0.029	0.968 ± 0.04	0.962 ± 0.019	0.96 ± 0.019	0.974 ± 0.015	0.946 ± 0.035	0.948 ± 0.032
UniProt O95999 and related entries	0.876 ± 0.03	0.885 ± 0.032	0.947 ± 0.056	0.92 ± 0.071	0.885 ± 0.053	0.926 ± 0.093	0.888 ± 0.065	0.917 ± 0.038
UniProt O94964-2|O94964 and related entries	1.05 ± 0.11	0.998 ± 0.13	1.139 ± 0.011	1.07 ± 0.025	1.09 ± 0.047	1.03 ± 0.037	1.12 ± 0.072	0.994 ± 0.041
TXNDC12 (UniProt O95881)	0.934 ± 0.06	0.867 ± 0.04	1.01 ± 0.064	0.964 ± 0.085	0.971 ± 0.1	0.937 ± 0.089	0.948 ± 0.12	0.934 ± 0.089
UniProt P06126	1.1 ± 0.021	0.926 ± 0.13	0.963 ± 0.024	0.961 ± 0.1	0.954 ± 0.05	1 ± 0.02	0.998 ± 0.11	0.899 ± 0.023
UniProt P04150 and related entries	0.899 ± 0.13	0.946 ± 0.032	1.14 ± 0.072	1.07 ± 0.029	1.01 ± 0.043	0.999 ± 0.055	1.02 ± 0.046	1.05 ± 0.069
P0619_C544|P48735 (UniProt P48735)	0.993 ± 0.02	0.997 ± 0.037	0.948 ± 0.014	0.908 ± 0.042	0.898 ± 0.031	0.907 ± 0.038	0.893 ± 0.03	0.875 ± 0.045

Some values from the results shown:
In NP40-soluble protein abundance (concentration: 8mM), ROCK2 (UniProt O75116) reads 0.977 ± 0.06
In NP40-soluble protein abundance (concentration: 6mM), UniProt P04899 and related entries reads 0.963 ± 0.023
